According to ChEMBL document CHEMBL4316593 (Eur J Med Chem, 2019):
This continues a long series; more values of the same kind are listed elsewhere.

Tests used:
Type in all cases: cell-based
Conditions in all cases: U-87MG ATCC
[1] = Inhibition of RTK/PI3K/AKT/mTOR signaling in human U87 cells assessed as up regulation of solute carrier family 25 member 43 gene expression at cytotoxic IC50 measured after 48 hrs relative to control
[2] = Inhibition of RTK/PI3K/AKT/mTOR signaling in human U87 cells assessed as up regulation of METAP1 gene expression at cytotoxic IC50 measured after 48 hrs relative to control
[3] = Inhibition of RTK/PI3K/AKT/mTOR signaling in human U87 cells assessed as down regulation of GUK1 gene expression at cytotoxic IC50 measured after 48 hrs relative to control
[4] = Inhibition of RTK/PI3K/AKT/mTOR signaling in human U87 cells assessed as up regulation of transcriptional regulating factor 1 gene expression at cytotoxic IC50 measured after 48 hrs relative to control
[5] = Inhibition of RTK/PI3K/AKT/mTOR signaling in human U87 cells assessed as up regulation of ubiquitin specific peptidase 28 gene expression at cytotoxic IC50 measured after 48 hrs relative to control
[6] = Inhibition of RTK/PI3K/AKT/mTOR signaling in human U87 cells assessed as down regulation of AAK1 gene expression at cytotoxic IC50 measured after 48 hrs relative to control
[7] = Inhibition of RTK/PI3K/AKT/mTOR signaling in human U87 cells assessed as up regulation of CSPG4 gene expression at cytotoxic IC50 measured after 48 hrs relative to control
[8] = Inhibition of RTK/PI3K/AKT/mTOR signaling in human U87 cells assessed as down regulation of POT1 gene expression at cytotoxic IC50 measured after 48 hrs relative to control
[9] = Inhibition of RTK/PI3K/AKT/mTOR signaling in human U87 cells assessed as up regulation of POLRMT gene expression at cytotoxic IC50 measured after 48 hrs relative to control
[10] = Inhibition of RTK/PI3K/AKT/mTOR signaling in human U87 cells assessed as up regulation of transcription factor AP-4 gene expression at cytotoxic IC50 measured after 48 hrs relative to control
[11] = Inhibition of RTK/PI3K/AKT/mTOR signaling in human U87 cells assessed as up regulation of ATPase Na+/K+ transporting subunit alpha 3 gene expression at cytotoxic IC50 measured after 48 hrs relative to control
[12] = Inhibition of RTK/PI3K/AKT/mTOR signaling in human U87 cells assessed as up regulation of DNA methyltransferase 3 beta gene expression at cytotoxic IC50 measured after 48 hrs relative to control
[13] = Inhibition of RTK/PI3K/AKT/mTOR signaling in human U87 cells assessed as up regulation of TEF, PAR bZIP transcription factor gene expression at cytotoxic IC50 measured after 48 hrs relative to control
[14] = Inhibition of RTK/PI3K/AKT/mTOR signaling in human U87 cells assessed as up regulation of period circadian clock 2 gene expression at cytotoxic IC50 measured after 48 hrs relative to control
[15] = Inhibition of RTK/PI3K/AKT/mTOR signaling in human U87 cells assessed as down regulation of CAPN2 gene expression at cytotoxic IC50 measured after 48 hrs relative to control
[16] = Inhibition of RTK/PI3K/AKT/mTOR signaling in human U87 cells assessed as down regulation of ZNF107 gene expression at cytotoxic IC50 measured after 48 hrs relative to control
[17] = Inhibition of RTK/PI3K/AKT/mTOR signaling in human U87 cells assessed as up regulation of tripartite motif containing 47 gene expression at cytotoxic IC50 measured after 48 hrs relative to control
[18] = Inhibition of RTK/PI3K/AKT/mTOR signaling in human U87 cells assessed as up regulation of VDAC1 gene expression at cytotoxic IC50 measured after 48 hrs relative to control
[19] = Inhibition of RTK/PI3K/AKT/mTOR signaling in human U87 cells assessed as up regulation of coenzyme Q8A gene expression at cytotoxic IC50 measured after 48 hrs relative to control
[20] = Inhibition of RTK/PI3K/AKT/mTOR signaling in human U87 cells assessed as up regulation of SLC39A7 gene expression at cytotoxic IC50 measured after 48 hrs relative to control
[21] = Inhibition of RTK/PI3K/AKT/mTOR signaling in human U87 cells assessed as up regulation of TPBG gene expression at cytotoxic IC50 measured after 48 hrs relative to control
[22] = Inhibition of RTK/PI3K/AKT/mTOR signaling in human U87 cells assessed as down regulation of STAT3 gene expression at cytotoxic IC50 measured after 48 hrs relative to control
[23] = Inhibition of RTK/PI3K/AKT/mTOR signaling in human U87 cells assessed as down regulation of MAGEB2 gene expression at cytotoxic IC50 measured after 48 hrs relative to control
[24] = Inhibition of RTK/PI3K/AKT/mTOR signaling in human U87 cells assessed as up regulation of EIF3B gene expression at cytotoxic IC50 measured after 48 hrs relative to control
[25] = Inhibition of RTK/PI3K/AKT/mTOR signaling in human U87 cells assessed as up regulation of histocompatibility minor 13 gene expression at cytotoxic IC50 measured after 48 hrs relative to control
[26] = Inhibition of RTK/PI3K/AKT/mTOR signaling in human U87 cells assessed as up regulation of aryl hydrocarbon receptor interacting protein gene expression at cytotoxic IC50 measured after 48 hrs relative to control
[27] = Inhibition of RTK/PI3K/AKT/mTOR signaling in human U87 cells assessed as up regulation of ANXA6 gene expression at cytotoxic IC50 measured after 48 hrs relative to control
[28] = Inhibition of RTK/PI3K/AKT/mTOR signaling in human U87 cells assessed as down regulation of C9orf72 gene expression at cytotoxic IC50 measured after 48 hrs relative to control
[29] = Inhibition of RTK/PI3K/AKT/mTOR signaling in human U87 cells assessed as down regulation of NASP gene expression at cytotoxic IC50 measured after 48 hrs relative to control
[30] = Inhibition of RTK/PI3K/AKT/mTOR signaling in human U87 cells assessed as up regulation of AKT serine/threonine kinase 2 gene expression at cytotoxic IC50 measured after 48 hrs relative to control
[31] = Inhibition of RTK/PI3K/AKT/mTOR signaling in human U87 cells assessed as down regulation of IK gene expression at cytotoxic IC50 measured after 48 hrs relative to control
[32] = Inhibition of RTK/PI3K/AKT/mTOR signaling in human U87 cells assessed as down regulation of CCNE1 gene expression at cytotoxic IC50 measured after 48 hrs relative to control

**Q.** With `CC(=O)C(=NNc1ccccc1C#N)C(C)=O` as the compound, how does the log2FC [1] read?
**A.** Its log2FC is 1.42.

**Q.** What about the log2FC [2] of the same compound?
**A.** Its log2FC is 0.522.

**Q.** And the log2FC [3]?
**A.** Its log2FC is -1.01.

**Q.** And the log2FC [4]?
**A.** Its log2FC is 1.47.

**Q.** What about the log2FC [5] of the same compound?
**A.** Its log2FC is 1.03.

**Q.** And the log2FC [6]?
**A.** Its log2FC is -0.837.

**Q.** And the log2FC [7]?
**A.** The log2FC was 1.76.

**Q.** And the log2FC [8]?
**A.** Its log2FC is -0.696.

**Q.** And the log2FC [9]?
**A.** Its log2FC is 0.526.

**Q.** What about the log2FC [10] of the same compound?
**A.** The log2FC was 0.978.

**Q.** And the log2FC [11]?
**A.** The log2FC was 1.03.

**Q.** What about the log2FC [12] of the same compound?
**A.** Its log2FC is 0.731.

**Q.** What about the log2FC [13] of the same compound?
**A.** The log2FC was 0.913.

**Q.** What about the log2FC [14] of the same compound?
**A.** Its log2FC is 0.677.

**Q.** And the log2FC [15]?
**A.** The log2FC was -0.913.

**Q.** What about the log2FC [16] of the same compound?
**A.** The log2FC was -1.74.

**Q.** What about the log2FC [17] of the same compound?
**A.** Its log2FC is 1.1.

**Q.** And the log2FC [18]?
**A.** The log2FC was 0.573.

**Q.** What about the log2FC [19] of the same compound?
**A.** The log2FC was 0.666.

**Q.** And the log2FC [20]?
**A.** Its log2FC is 0.574.

**Q.** And the log2FC [21]?
**A.** The log2FC was 0.467.

**Q.** And the log2FC [22]?
**A.** Its log2FC is -0.753.

**Q.** And the log2FC [23]?
**A.** Its log2FC is -0.469.

**Q.** What about the log2FC [24] of the same compound?
**A.** The log2FC was 0.304.

**Q.** What about the log2FC [25] of the same compound?
**A.** Its log2FC is 0.649.

**Q.** And the log2FC [26]?
**A.** Its log2FC is 0.747.

**Q.** And the log2FC [27]?
**A.** Its log2FC is 0.466.

**Q.** What about the log2FC [28] of the same compound?
**A.** The log2FC was -0.903.

**Q.** What about the log2FC [29] of the same compound?
**A.** Its log2FC is -0.809.

**Q.** And the log2FC [30]?
**A.** The log2FC was 0.727.

**Q.** And the log2FC [31]?
**A.** Its log2FC is -0.552.

**Q.** And the log2FC [32]?
**A.** Its log2FC is -0.876.
